Test results published in paper PMC12224001.
These are yes or no findings as the source states them, for the method shown. In cells and extracts the contact can be indirect. Some entries that bind do so weakly or less than the wild type. For some of these results: Where a sequence is shown, tags or fusion partners need not be part of it.

By UniProt entry, the sequences of proteins in these tests, tags left out. Residues count along the entry.
UniProt Q9BXM7, residues 78-581: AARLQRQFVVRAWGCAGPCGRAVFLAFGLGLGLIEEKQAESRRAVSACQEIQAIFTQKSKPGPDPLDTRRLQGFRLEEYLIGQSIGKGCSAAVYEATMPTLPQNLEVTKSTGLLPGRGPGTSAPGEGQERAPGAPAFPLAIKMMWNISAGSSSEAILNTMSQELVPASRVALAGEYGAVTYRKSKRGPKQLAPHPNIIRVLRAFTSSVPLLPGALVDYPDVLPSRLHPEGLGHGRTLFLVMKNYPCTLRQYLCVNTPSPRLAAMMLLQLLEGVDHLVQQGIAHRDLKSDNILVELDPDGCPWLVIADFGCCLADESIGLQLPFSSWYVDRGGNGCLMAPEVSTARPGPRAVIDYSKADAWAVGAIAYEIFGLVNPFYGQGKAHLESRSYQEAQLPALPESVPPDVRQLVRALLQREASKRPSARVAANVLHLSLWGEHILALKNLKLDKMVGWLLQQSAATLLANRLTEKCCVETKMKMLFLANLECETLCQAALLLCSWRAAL

Experiments:
[1] = target: T1, OGT-FLAG (UniProt O15294); assay: co-IP; HEK293T cells transfected with OGT-FLAG and/or PINK1-MYC for 48 h, lysed with IP lysis buffer; MYC IP or FLAG IP on myc/flag magnetic beads for 4 h; western blotting
T1 sequence: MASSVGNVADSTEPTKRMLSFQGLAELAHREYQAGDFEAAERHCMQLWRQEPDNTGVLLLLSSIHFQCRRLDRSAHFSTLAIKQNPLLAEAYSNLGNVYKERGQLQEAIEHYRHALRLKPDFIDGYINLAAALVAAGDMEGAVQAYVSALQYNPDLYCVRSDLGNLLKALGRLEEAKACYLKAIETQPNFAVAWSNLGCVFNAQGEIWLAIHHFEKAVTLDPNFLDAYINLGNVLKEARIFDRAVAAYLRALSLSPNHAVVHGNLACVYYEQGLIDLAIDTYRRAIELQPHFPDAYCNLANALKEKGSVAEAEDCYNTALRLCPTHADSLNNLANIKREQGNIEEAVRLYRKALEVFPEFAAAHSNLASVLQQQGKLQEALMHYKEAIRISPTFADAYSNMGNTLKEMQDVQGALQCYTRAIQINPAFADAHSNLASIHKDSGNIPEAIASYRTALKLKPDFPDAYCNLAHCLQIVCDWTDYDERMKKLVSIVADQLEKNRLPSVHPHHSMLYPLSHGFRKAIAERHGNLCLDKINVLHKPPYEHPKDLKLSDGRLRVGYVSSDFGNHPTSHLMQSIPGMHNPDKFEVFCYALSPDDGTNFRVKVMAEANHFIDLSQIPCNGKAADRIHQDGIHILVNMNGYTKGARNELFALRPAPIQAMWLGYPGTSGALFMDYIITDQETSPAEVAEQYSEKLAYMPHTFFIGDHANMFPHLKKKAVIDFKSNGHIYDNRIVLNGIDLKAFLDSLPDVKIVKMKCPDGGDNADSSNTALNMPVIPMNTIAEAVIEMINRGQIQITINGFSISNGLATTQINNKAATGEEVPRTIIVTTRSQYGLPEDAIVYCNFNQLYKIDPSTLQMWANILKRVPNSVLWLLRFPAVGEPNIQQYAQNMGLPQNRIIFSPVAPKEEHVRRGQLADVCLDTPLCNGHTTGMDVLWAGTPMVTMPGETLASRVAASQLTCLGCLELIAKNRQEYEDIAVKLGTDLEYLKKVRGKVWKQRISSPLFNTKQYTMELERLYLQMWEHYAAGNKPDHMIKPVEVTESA

[2] = target: T2, O-GlcNAc transferase (OGT), endogenous (human (endogenous in HeLa)) (UniProt O15294); assay: co-IP; endogenous IP with anti-PINK1 or anti-OGT antibody on protein A/G magnetic beads; YFP-Parkin expressing HeLa cells treated with or without 1 μM O/A for 1 and 2 h; IP lysis buffer; western blotting
T2 sequence: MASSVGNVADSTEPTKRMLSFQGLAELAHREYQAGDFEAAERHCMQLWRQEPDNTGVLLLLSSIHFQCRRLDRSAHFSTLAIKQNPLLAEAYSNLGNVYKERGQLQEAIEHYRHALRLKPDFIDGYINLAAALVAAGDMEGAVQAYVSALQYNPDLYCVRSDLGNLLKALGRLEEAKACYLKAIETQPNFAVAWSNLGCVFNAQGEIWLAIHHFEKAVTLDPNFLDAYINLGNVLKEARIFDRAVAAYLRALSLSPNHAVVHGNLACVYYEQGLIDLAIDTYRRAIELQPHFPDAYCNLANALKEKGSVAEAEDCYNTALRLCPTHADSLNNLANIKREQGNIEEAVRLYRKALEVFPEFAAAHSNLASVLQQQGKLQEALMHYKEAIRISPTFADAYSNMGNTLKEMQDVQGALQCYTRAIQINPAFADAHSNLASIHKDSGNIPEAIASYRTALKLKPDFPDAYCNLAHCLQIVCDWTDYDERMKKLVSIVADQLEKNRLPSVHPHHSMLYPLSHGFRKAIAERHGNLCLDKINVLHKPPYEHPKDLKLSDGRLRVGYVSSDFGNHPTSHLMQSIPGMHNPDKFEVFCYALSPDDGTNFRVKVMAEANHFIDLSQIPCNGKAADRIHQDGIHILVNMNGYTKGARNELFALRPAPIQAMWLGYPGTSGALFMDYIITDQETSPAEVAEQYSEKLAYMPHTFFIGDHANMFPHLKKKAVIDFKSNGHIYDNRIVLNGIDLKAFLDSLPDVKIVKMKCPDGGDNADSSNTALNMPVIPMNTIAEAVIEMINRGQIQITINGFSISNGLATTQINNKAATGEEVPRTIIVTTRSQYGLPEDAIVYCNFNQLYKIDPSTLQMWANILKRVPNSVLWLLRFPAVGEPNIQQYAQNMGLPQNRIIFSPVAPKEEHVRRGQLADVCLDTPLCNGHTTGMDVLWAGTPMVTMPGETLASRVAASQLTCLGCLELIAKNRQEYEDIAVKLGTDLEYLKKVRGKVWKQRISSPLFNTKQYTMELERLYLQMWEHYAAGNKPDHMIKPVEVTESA

[3] = target: PTEN-induced kinase 1 (PINK1), endogenous (human (endogenous in HeLa)) (UniProt Q9BXM7); assay: as above
[4] = target: PINK1-MYC (UniProt Q9BXM7); assay: co-IP; HEK293T cells transfected with OGT-FLAG and/or PINK1-MYC for 48 h, lysed with IP lysis buffer; MYC IP or FLAG IP on myc/flag magnetic beads for 4 h; western blotting

PINK1-MYC (from UniProt Q9BXM7 78-581)
binding [1]: binds

PTEN-induced kinase 1 (PINK1), endogenous (from UniProt Q9BXM7 78-581)
binding [2]: binds

B1: O-GlcNAc transferase (OGT), endogenous (enzyme, UniProt O15294 1-1046)
chain: MASSVGNVADSTEPTKRMLSFQGLAELAHREYQAGDFEAAERHCMQLWRQEPDNTGVLLLLSSIHFQCRRLDRSAHFSTLAIKQNPLLAEAYSNLGNVYKERGQLQEAIEHYRHALRLKPDFIDGYINLAAALVAAGDMEGAVQAYVSALQYNPDLYCVRSDLGNLLKALGRLEEAKACYLKAIETQPNFAVAWSNLGCVFNAQGEIWLAIHHFEKAVTLDPNFLDAYINLGNVLKEARIFDRAVAAYLRALSLSPNHAVVHGNLACVYYEQGLIDLAIDTYRRAIELQPHFPDAYCNLANALKEKGSVAEAEDCYNTALRLCPTHADSLNNLANIKREQGNIEEAVRLYRKALEVFPEFAAAHSNLASVLQQQGKLQEALMHYKEAIRISPTFADAYSNMGNTLKEMQDVQGALQCYTRAIQINPAFADAHSNLASIHKDSGNIPEAIASYRTALKLKPDFPDAYCNLAHCLQIVCDWTDYDERMKKLVSIVADQLEKNRLPSVHPHHSMLYPLSHGFRKAIAERHGNLCLDKINVLHKPPYEHPKDLKLSDGRLRVGYVSSDFGNHPTSHLMQSIPGMHNPDKFEVFCYALSPDDGTNFRVKVMAEANHFIDLSQIPCNGKAADRIHQDGIHILVNMNGYTKGARNELFALRPAPIQAMWLGYPGTSGALFMDYIITDQETSPAEVAEQYSEKLAYMPHTFFIGDHANMFPHLKKKAVIDFKSNGHIYDNRIVLNGIDLKAFLDSLPDVKIVKMKCPDGGDNADSSNTALNMPVIPMNTIAEAVIEMINRGQIQITINGFSISNGLATTQINNKAATGEEVPRTIIVTTRSQYGLPEDAIVYCNFNQLYKIDPSTLQMWANILKRVPNSVLWLLRFPAVGEPNIQQYAQNMGLPQNRIIFSPVAPKEEHVRRGQLADVCLDTPLCNGHTTGMDVLWAGTPMVTMPGETLASRVAASQLTCLGCLELIAKNRQEYEDIAVKLGTDLEYLKKVRGKVWKQRISSPLFNTKQYTMELERLYLQMWEHYAAGNKPDHMIKPVEVTESA
binding [3]: binds

B2: OGT-FLAG (enzyme, UniProt O15294 1-1046)
chain: MASSVGNVADSTEPTKRMLSFQGLAELAHREYQAGDFEAAERHCMQLWRQEPDNTGVLLLLSSIHFQCRRLDRSAHFSTLAIKQNPLLAEAYSNLGNVYKERGQLQEAIEHYRHALRLKPDFIDGYINLAAALVAAGDMEGAVQAYVSALQYNPDLYCVRSDLGNLLKALGRLEEAKACYLKAIETQPNFAVAWSNLGCVFNAQGEIWLAIHHFEKAVTLDPNFLDAYINLGNVLKEARIFDRAVAAYLRALSLSPNHAVVHGNLACVYYEQGLIDLAIDTYRRAIELQPHFPDAYCNLANALKEKGSVAEAEDCYNTALRLCPTHADSLNNLANIKREQGNIEEAVRLYRKALEVFPEFAAAHSNLASVLQQQGKLQEALMHYKEAIRISPTFADAYSNMGNTLKEMQDVQGALQCYTRAIQINPAFADAHSNLASIHKDSGNIPEAIASYRTALKLKPDFPDAYCNLAHCLQIVCDWTDYDERMKKLVSIVADQLEKNRLPSVHPHHSMLYPLSHGFRKAIAERHGNLCLDKINVLHKPPYEHPKDLKLSDGRLRVGYVSSDFGNHPTSHLMQSIPGMHNPDKFEVFCYALSPDDGTNFRVKVMAEANHFIDLSQIPCNGKAADRIHQDGIHILVNMNGYTKGARNELFALRPAPIQAMWLGYPGTSGALFMDYIITDQETSPAEVAEQYSEKLAYMPHTFFIGDHANMFPHLKKKAVIDFKSNGHIYDNRIVLNGIDLKAFLDSLPDVKIVKMKCPDGGDNADSSNTALNMPVIPMNTIAEAVIEMINRGQIQITINGFSISNGLATTQINNKAATGEEVPRTIIVTTRSQYGLPEDAIVYCNFNQLYKIDPSTLQMWANILKRVPNSVLWLLRFPAVGEPNIQQYAQNMGLPQNRIIFSPVAPKEEHVRRGQLADVCLDTPLCNGHTTGMDVLWAGTPMVTMPGETLASRVAASQLTCLGCLELIAKNRQEYEDIAVKLGTDLEYLKKVRGKVWKQRISSPLFNTKQYTMELERLYLQMWEHYAAGNKPDHMIKPVEVTESA
binding [4]: binds
